Data from patent US20150203556A1 (UAB RESEARCH FOUNDATION, published 2015).
These are yes or no findings as the source states them, for the method shown. Some results given as binding are weak or reduced against the parent protein; the word gives no strength.

Chains of the proteins cited; added tags and fusions are not shown. Lines headed by an entry give the natural chain unless they say otherwise; changes in a name come on top.
UniProt Q6UXL0: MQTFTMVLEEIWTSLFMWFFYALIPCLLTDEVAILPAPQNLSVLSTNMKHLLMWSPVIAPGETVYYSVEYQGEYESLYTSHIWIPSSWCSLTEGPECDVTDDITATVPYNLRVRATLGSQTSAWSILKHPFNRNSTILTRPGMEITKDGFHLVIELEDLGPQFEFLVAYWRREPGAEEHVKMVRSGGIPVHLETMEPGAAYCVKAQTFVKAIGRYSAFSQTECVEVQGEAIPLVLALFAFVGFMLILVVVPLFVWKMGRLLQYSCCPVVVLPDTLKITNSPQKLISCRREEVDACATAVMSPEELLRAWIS

T1: IL-19/IL-20R2 binary complex (human) (UniProt Q9UHD0)
T1 sequence 1: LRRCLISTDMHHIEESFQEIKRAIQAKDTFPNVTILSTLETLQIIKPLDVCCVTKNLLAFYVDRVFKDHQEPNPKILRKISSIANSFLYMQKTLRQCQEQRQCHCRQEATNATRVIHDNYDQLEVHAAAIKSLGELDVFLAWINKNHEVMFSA
T1 sequence 2: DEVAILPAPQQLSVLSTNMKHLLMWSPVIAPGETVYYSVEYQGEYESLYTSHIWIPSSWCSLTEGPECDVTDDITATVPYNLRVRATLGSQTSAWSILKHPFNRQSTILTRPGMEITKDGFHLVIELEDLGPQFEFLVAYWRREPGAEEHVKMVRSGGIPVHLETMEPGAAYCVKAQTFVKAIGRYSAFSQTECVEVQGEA

T2: soluble IL-20R2 (Homo sapiens (Human)) (UniProt Q6UXL0)
T2 sequence: T1 sequence 2

T3: IL-20R1-FC
T3 construct: also called IL-20R-fc
T3 chain: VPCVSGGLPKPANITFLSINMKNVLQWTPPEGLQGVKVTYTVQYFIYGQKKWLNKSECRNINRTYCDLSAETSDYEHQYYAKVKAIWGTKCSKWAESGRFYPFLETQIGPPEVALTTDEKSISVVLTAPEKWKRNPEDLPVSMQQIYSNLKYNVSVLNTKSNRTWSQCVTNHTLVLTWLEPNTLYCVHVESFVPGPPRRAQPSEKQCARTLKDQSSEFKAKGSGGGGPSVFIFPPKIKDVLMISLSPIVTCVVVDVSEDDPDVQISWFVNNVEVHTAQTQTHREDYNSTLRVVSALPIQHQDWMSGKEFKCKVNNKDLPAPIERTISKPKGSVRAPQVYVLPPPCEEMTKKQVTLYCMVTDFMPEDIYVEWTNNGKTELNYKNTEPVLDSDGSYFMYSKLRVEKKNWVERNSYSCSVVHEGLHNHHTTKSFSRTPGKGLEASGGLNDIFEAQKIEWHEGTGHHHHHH

T4: IL-22R1 (sIL-22R1DDQ) (Homo sapiens (Human)) (UniProt Q8N6P7)
T4 sequence: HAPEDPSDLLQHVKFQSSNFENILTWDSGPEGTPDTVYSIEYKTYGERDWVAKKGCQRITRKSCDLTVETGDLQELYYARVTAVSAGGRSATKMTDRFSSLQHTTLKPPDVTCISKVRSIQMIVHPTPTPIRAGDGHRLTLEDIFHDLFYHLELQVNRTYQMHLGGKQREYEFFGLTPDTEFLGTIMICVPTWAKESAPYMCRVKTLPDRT

B1: IL-20R1 triple mutant M3 (receptor, UniProt Q9UHF4 29-245, looked up)
chain: AVPCVSGGLPKPANITFLSINMKNVLQWTPPEGLQGVKVTYTVQYFIYGQKKWLNKSECRNINRTYCDLSAETSDYEHQYYAKVKAIWGTKCSKWAESGRFYPFLETQIGPPEVALTTDEKSISVVLTAPEKWKRNPEDLPVSMQQIYSNLKYNVSVLNTKANRTASQCVTNHTLVLTALEPNTLYCVHVESFVPGPPRRAQPSEKQCARTLKDQSS
B2: soluble IL-20R1 (receptor)
chain: VPCVSGGLPKPANITFLSINMKNVLQWTPPEGLQGVKVTYTVQYFIYGQKKWLNKSECRNINRTYCDLSAETSDYEHQYYAKVKAIWGTKCSKWAESGRFYPFLETQIGPPEVALTTDEKSISVVLTAPEKWKRNPEDLPVSMQQIYSNLKYNVSVLNTKSNRTWSQCVTNHTLVLTWLEPNTLYCVHVESFVPGPPRRAQPSEKQCARTLKDQSS
B3: IL-19 (ligand)
chain: T1 sequence 1
B4: IL-20/IL-20R2 binary complex (other)
chain 1: MLKTLNLGSCVIATNLQEIRNGFSEIRGSVQAKDGNIDIRILRRTESLQDTKPANRCCLLRHLLRLYLDRVFKNYQTPDHYTLRKISSLANSFLTIKKDLRLCHAHMTCHCGEEAMKKYSQILSHFEKLEPQAAVVKALGELDILLQWMEETE
chain 2: T1 sequence 2
notes: also called 20 + 20R2; IL-20+soluble IL-20R2
B5: IL-19/IL-20R2 binary complex (other)
chain 1: T1 sequence 1
chain 2: T1 sequence 2
notes: IL-19 with IL-20R2 that carries no FC: amine coupled on the chip, or soluble; also called IL-19+soluble IL-20R2
B6: IL-20 (ligand)
chain: B4 chain 1
notes: The crystal model holds residues 24-176; also called Interleukin-20; IL-20b

Key:
[1] = target: B4; assay: SPR, IL-20 (250 nM) co-injected with the IL-20R1 site 3 mutant M3 (425 nM) over an IL-20R2 coupled Biacore chip
[2] = target: T1, IL-19/IL-20R2 binary complex (human); assay: SPR, IL-19 (250 nM) co-injected with soluble IL-20R1 (425 nM) over an IL-20R2 coupled Biacore chip; ternary complex formation
[3] = target: T1, IL-19/IL-20R2 binary complex (human); assay: glutaraldehyde cross-linking of soluble complexes at 5 µM, SDS-PAGE
[4] = target: B4; assay: as above
[5] = target: B4; assay: SPR, IL-20 (250 nM) co-injected with soluble IL-20R1 (425 nM) over an IL-20R2 coupled Biacore chip; ternary complex formation
[6] = target: T1, IL-19/IL-20R2 binary complex (human); assay: SPR, IL-19 (250 nM) + IL-20R1 (425 nM) over an IL-20R2 coupled chip
[7] = target: T1, IL-19/IL-20R2 binary complex (human); assay: glutaraldehyde cross-linking of IL-19/IL-20R1/IL-20R2 (5 µM, 30 min), 15% SDS-PAGE; middle gel (FIG. 11B of the legend)
[8] = target: B4; assay: glutaraldehyde cross-linking of IL-20/IL-20R1/IL-20R2 (5 µM, 30 min), 15% SDS-PAGE; bottom gel (FIG. 11C of the legend)
[9] = target: B4; assay: SPR, IL-20 (250 nM) + IL-20R1 (425 nM) over an IL-20R2 coupled chip
[10] = target: T2, soluble IL-20R2 (Homo sapiens (Human)); assay: glutaraldehyde cross-linking of IL-19/IL-20R1/IL-20R2 (5 µM, 30 min), 15% SDS-PAGE; middle gel 'IL-19/IL-20R1/IL-20R2 x-linking' (FIG. 11B of the legend)
IL-20R2-FC = assay: SPR, IL-19 over IL-20R2 (FIG. 12C)
[11] = target: T2, soluble IL-20R2 (Homo sapiens (Human)); assay: glutaraldehyde cross-linking of soluble complexes at 5 µM, SDS-PAGE
[12] = target: T2, soluble IL-20R2 (Homo sapiens (Human)); assay: glutaraldehyde cross-linking of IL-19/IL-20R2 (5 µM, 30 min), 15% SDS-PAGE; top gel 'IL-19/IL-20R2 x-linking' (FIG. 11A of the legend)
IL-20R1-FC = target: T3, IL-20R1-FC; assay: SPR, IL-20 (1000 to 31.25 nM, 2-fold dilutions) co-injected with soluble IL-20R2 (fixed at 500 nM) over an IL-20R1-FC coupled surface
[13] = target: T4, IL-22R1 (sIL-22R1DDQ) (Homo sapiens (Human)); assay: SPR, IL-20 (1000 to 31.25 nM, 2-fold dilutions) co-injected with soluble IL-20R2 (fixed at 500 nM) over an IL-22R1 coupled surface
[14] = target: T4, IL-22R1 (sIL-22R1DDQ) (Homo sapiens (Human)); assay: SPR, IL-19 (1000 to 31.25 nM, 2-fold dilutions) co-injected with soluble IL-20R2 (fixed at 500 nM) over an IL-22R1 coupled surface
[15] = target: T2, soluble IL-20R2 (Homo sapiens (Human)); assay: glutaraldehyde cross-linking of IL-20/IL-20R1/IL-20R2 (5 µM, 30 min), 15% SDS-PAGE; bottom gel 'IL-20/IL-20R1/IL-20R2 x-linking' (FIG. 11C of the legend)

Binder: B1
binding [1]: binds

Binder: B2
binding [2]: binds | binding [3]: binds | binding [4]: binds | binding [5]: binds | binding [6]: binds | binding [7]: binds | binding [8]: binds | binding [9]: binds

Binder: B3
binding [10]: binds | binding (IL-20R2-FC): binds | binding [11]: binds | binding [12]: binds

Binder: B4
binding (IL-20R1-FC): binds | binding [13]: binds

Binder: B5
binding [14]: no binding (tested: 1000 nM IL-19 with 500 nM IL-20R2)

Binder: B6
binding [15]: binds
